# Source: the supplement of paper PMC8728848
# The list shows a part of the results.
# B1: GS13814A-bth-462-26-462 (Bacteroides thetaiotaomicron) (protein)
# chain: DDRDNLMVNDQIGLLHSTYTETEIFRGMDTPYQLFVIKSGKGKQETEVSISVDETVLQSYNTDNGTSIQLLPSDCYTILQPALRLNDSDYRKAFDIKWNADRLSDLLSTGKEYGLPIQMSVVQNFISADDERLKTIIVPTIKEPYLQMDVPGMSPVTDFMPTFGDLNERELFVKIRTNYSNDEDISFQIEVDPQLVIDYNTAHGTAYKMLPESSFTVDNKGVILTGMKETFIKIKYHKKGLIPEEGTYLFGDYVLPLRITSVSKYGISPDAASKLYTVKFQPDPIDKKGWSVIDFNNCCTQDGGWYLNMGWGVESLIDNNPGTQWLCRWDVKEPLPYYFVFDMGKEYTLFRFGFANPVAPAAHVWAGTSKAGYVEASIDNENWVKLKDWTSPKIGEPNVNMDVPATQARYIRFVITDTYPTYDGLRVSLGEVYAWGM
# Assays:
# Assay in all cases: glycan array binding signal (z-score within array); higher = stronger binding
# Conditions in all cases: glycan notation: IUPAC condensed, linker removed
# [1] = target: GlcNAc(a1-4)Gal(b1-3)GlcNAc
# Summary of the method: (§1)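 The binding signal is a Z-score computed within each array. Data were drawn from 3228 arrays in the Consortium for Functional Glycomics database, restricted to those with a known protein sequence. Scores were averaged over arrays of the same protein sequence at different concentrations or buffers, and over linkers, and negative values can be taken as non-binding.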
# [2] = target: GlcNAc(a1-4)Gal(b1-4)GalNAc
# Summary of the method: as §1
# [3] = target: GlcNAc(a1-4)Gal(b1-4)GlcNAc
# Summary of the method: as §1
# [4] = target: GlcNAc(a1-4)Gal(b1-4)GlcNAc(b1-3)Gal(b1-4)Glc
# Summary of the method: as §1
# [5] = target: GlcNAc(a1-4)Gal(b1-4)GlcNAc(b1-3)Gal(b1-4)GlcNAc
# Summary of the method: as §1
# [6] = target: GlcNAc(a1-4)Gal(b1-4)GlcNAc(b1-3)Gal(b1-4)GlcNAc(b1-3)Gal(b1-4)GlcNAc
# Summary of the method: as §1
# [7] = target: GlcNAc(a1-4)Gal(b1-4)GlcNAc(b1-3)Gal(b1-4)[Fuc(a1-3)]GlcNAc(b1-3)Gal(b1-4)[Fuc(a1-3)]GlcNAc
# Summary of the method: as §1
# [8] = target: GlcNAc(a1-6)Gal(b1-4)GlcNAc
# Summary of the method: as §1
# [9] = target: GlcNAc(b1-2)Gal(b1-3)GalNAc
# Summary of the method: as §1
# [10] = target: GlcNAc(b1-2)Man(a1-3)[GlcNAc(b1-2)Man(a1-6)]Man(b1-4)GlcNAc(b1-4)GlcNAc
# Summary of the method: as §1
# [11] = target: GlcNAc(b1-2)Man(a1-3)[GlcNAc(b1-2)Man(a1-6)]Man(b1-4)GlcNAc(b1-4)[Fuc(a1-6)]GlcNAc
# Summary of the method: as §1
# [12] = target: GlcNAc(b1-2)Man(a1-3)[GlcNAc(b1-4)][GlcNAc(b1-2)Man(a1-6)]Man(b1-4)GlcNAc(b1-4)GlcNAc
# Summary of the method: as §1
# [13] = target: GlcNAc(b1-2)Man(a1-3)[GlcNAc(b1-4)][GlcNAc(b1-2)Man(a1-6)]Man(b1-4)GlcNAc(b1-4)[Fuc(a1-6)]GlcNAc
# Summary of the method: as §1
# [14] = target: GlcNAc(b1-2)[GlcNAc(b1-4)]Man(a1-3)[GlcNAc(b1-2)Man(a1-6)]Man(b1-4)GlcNAc(b1-4)GlcNAc
# Summary of the method: as §1
# [15] = target: GlcNAc(b1-2)[GlcNAc(b1-4)]Man(a1-3)[GlcNAc(b1-4)][GlcNAc(b1-2)Man(a1-6)]Man(b1-4)GlcNAc(b1-4)GlcNAc
# Summary of the method: as §1
# [16] = target: GlcNAc(b1-2)[GlcNAc(b1-4)]Man(a1-3)[GlcNAc(b1-4)][GlcNAc(b1-2)[GlcNAc(b1-6)]Man(a1-6)]Man(b1-4)GlcNAc(b1-4)GlcNAc
# Summary of the method: as §1
# [17] = target: GlcNAc(b1-2)[GlcNAc(b1-4)]Man(a1-3)[GlcNAc(b1-4)][GlcNAc(b1-2)[GlcNAc(b1-6)]Man(a1-6)]Man(b1-4)GlcNAc(b1-4)[Fuc(a1-6)]GlcNAc
# Summary of the method: as §1
# [18] = target: GlcNAc(b1-2)[GlcNAc(b1-6)]Man(a1-6)[GlcNAc(b1-2)Man(a1-3)]Man(b1-4)GlcNAc(b1-4)GlcNAc
# Summary of the method: as §1
# [19] = target: GlcNAc(b1-2)[GlcNAc(b1-6)]Man(a1-6)[GlcNAc(b1-2)Man(a1-3)]Man(b1-4)GlcNAc(b1-4)[Fuc(a1-6)]GlcNAc
# Summary of the method: as §1
# [20] = target: GlcNAc(b1-2)[GlcNAc(b1-6)]Man(a1-6)[GlcNAc(b1-4)][GlcNAc(b1-2)Man(a1-3)]Man(b1-4)GlcNAc(b1-4)GlcNAc
# Summary of the method: as §1
# GlcNAc(b1-3)Fuc = target: GlcNAc(b1-3)Fuc
# Summary of the method: as §1
# GlcNAc(b1-3)Gal = target: GlcNAc(b1-3)Gal
# Summary of the method: as §1
# [21] = target: GlcNAc(b1-3)Gal(b1-3)GalNAc
# Summary of the method: as §1
# GlcNAc(b1-3)Gal(b1-4)Glc = target: GlcNAc(b1-3)Gal(b1-4)Glc
# Summary of the method: as §1
# [22] = target: GlcNAc(b1-3)Gal(b1-4)GlcNAc
# Summary of the method: as §1
# [23] = target: GlcNAc(b1-3)Gal(b1-4)GlcNAc(b1-2)Man(a1-3)[GlcNAc(b1-3)Gal(b1-4)GlcNAc(b1-2)Man(a1-6)]Man(b1-4)GlcNAc(b1-4)GlcNAc
# Summary of the method: as §1
# [24] = target: GlcNAc(b1-3)Gal(b1-4)GlcNAc(b1-2)Man(a1-3)[GlcNAc(b1-3)Gal(b1-4)GlcNAc(b1-2)Man(a1-6)]Man(b1-4)GlcNAc(b1-4)[Fuc(a1-6)]GlcNAc
# Summary of the method: as §1
# [25] = target: GlcNAc(b1-3)Gal(b1-4)GlcNAc(b1-2)[GlcNAc(b1-3)Gal(b1-4)GlcNAc(b1-6)]Man(a1-6)[GlcNAc(b1-3)Gal(b1-4)GlcNAc(b1-2)Man(a1-3)]Man(b1-4)GlcNAc(b1-4)GlcNAc
# Summary of the method: as §1
# [26] = target: GlcNAc(b1-3)Gal(b1-4)GlcNAc(b1-3)Gal(b1-4)GlcNAc
# Summary of the method: as §1
# [27] = target: GlcNAc(b1-3)Gal(b1-4)GlcNAc(b1-3)Gal(b1-4)GlcNAc(b1-2)Man(a1-3)[GlcNAc(b1-3)Gal(b1-4)GlcNAc(b1-3)Gal(b1-4)GlcNAc(b1-2)Man(a1-6)]Man(b1-4)GlcNAc(b1-4)GlcNAc
# Summary of the method: as §1
# [28] = target: GlcNAc(b1-3)Gal(b1-4)GlcNAc(b1-3)Gal(b1-4)GlcNAc(b1-2)Man(a1-3)[GlcNAc(b1-3)Gal(b1-4)GlcNAc(b1-3)Gal(b1-4)GlcNAc(b1-2)Man(a1-6)]Man(b1-4)GlcNAc(b1-4)[Fuc(a1-6)]GlcNAc
# Summary of the method: as §1
# [29] = target: GlcNAc(b1-3)Gal(b1-4)GlcNAc(b1-3)Gal(b1-4)GlcNAc(b1-2)[GlcNAc(b1-3)Gal(b1-4)GlcNAc(b1-3)Gal(b1-4)GlcNAc(b1-6)]Man(a1-6)[GlcNAc(b1-3)Gal(b1-4)GlcNAc(b1-3)Gal(b1-4)GlcNAc(b1-2)Man(a1-3)]Man(b1-4)GlcNAc(b1-4)[Fuc(a1-6)]GlcNAc
# Summary of the method: as §1
# [30] = target: GlcNAc(b1-3)Gal(b1-4)GlcNAc(b1-3)Gal(b1-4)GlcNAc(b1-3)Gal(b1-4)GlcNAc(b1-2)Man(a1-3)[GlcNAc(b1-3)Gal(b1-4)GlcNAc(b1-3)Gal(b1-4)GlcNAc(b1-3)Gal(b1-4)GlcNAc(b1-2)Man(a1-6)]Man(b1-4)GlcNAc(b1-4)GlcNAc
# Summary of the method: as §1
# [31] = target: GlcNAc(b1-3)Gal(b1-4)GlcNAc(b1-3)Gal(b1-4)GlcNAc(b1-3)Gal(b1-4)GlcNAc(b1-2)Man(a1-3)[GlcNAc(b1-3)Gal(b1-4)GlcNAc(b1-3)Gal(b1-4)GlcNAc(b1-3)Gal(b1-4)GlcNAc(b1-2)Man(a1-6)]Man(b1-4)GlcNAc(b1-4)[Fuc(a1-6)]GlcNAc
# Summary of the method: as §1
# [32] = target: GlcNAc(b1-3)Gal(b1-4)GlcNAc(b1-3)Gal(b1-4)GlcNAc(b1-3)Gal(b1-4)GlcNAc(b1-2)[GlcNAc(b1-3)Gal(b1-4)GlcNAc(b1-3)Gal(b1-4)GlcNAc(b1-3)Gal(b1-4)GlcNAc(b1-6)]Man(a1-6)[GlcNAc(b1-3)Gal(b1-4)GlcNAc(b1-3)Gal(b1-4)GlcNAc(b1-3)Gal(b1-4)GlcNAc(b1-2)Man(a1-3)]Man(b1-4)GlcNAc(b1-4)[Fuc(a1-6)]GlcNAc
# Summary of the method: as §1
# [33] = target: GlcNAc(b1-3)Gal(b1-4)GlcNAc(b1-3)Gal(b1-4)GlcNAc(b1-3)Gal(b1-4)GlcNAc(b1-3)Gal(b1-4)GlcNAc(b1-2)Man(a1-3)[GlcNAc(b1-3)Gal(b1-4)GlcNAc(b1-3)Gal(b1-4)GlcNAc(b1-3)Gal(b1-4)GlcNAc(b1-3)Gal(b1-4)GlcNAc(b1-2)Man(a1-6)]Man(b1-4)GlcNAc(b1-4)GlcNAc
# Summary of the method: as §1
# [34] = target: GlcNAc(b1-3)Gal(b1-4)GlcNAc(b1-3)Gal(b1-4)GlcNAc(b1-3)Gal(b1-4)GlcNAc(b1-3)Gal(b1-4)GlcNAc(b1-2)Man(a1-3)[GlcNAc(b1-3)Gal(b1-4)GlcNAc(b1-3)Gal(b1-4)GlcNAc(b1-3)Gal(b1-4)GlcNAc(b1-3)Gal(b1-4)GlcNAc(b1-2)Man(a1-6)]Man(b1-4)GlcNAc(b1-4)[Fuc(a1-6)]GlcNAc
# Summary of the method: as §1
# [35] = target: GlcNAc(b1-3)Gal(b1-4)GlcNAc(b1-3)Gal(b1-4)GlcNAc(b1-3)Gal(b1-4)GlcNAc(b1-3)Gal(b1-4)GlcNAc(b1-2)[GlcNAc(b1-3)Gal(b1-4)GlcNAc(b1-3)Gal(b1-4)GlcNAc(b1-3)Gal(b1-4)GlcNAc(b1-3)Gal(b1-4)GlcNAc(b1-6)]Man(a1-6)[GlcNAc(b1-3)Gal(b1-4)GlcNAc(b1-3)Gal(b1-4)GlcNAc(b1-3)Gal(b1-4)GlcNAc(b1-3)Gal(b1-4)GlcNAc(b1-2)Man(a1-3)]Man(b1-4)GlcNAc(b1-4)[Fuc(a1-6)]GlcNAc
# Summary of the method: as §1
binder,measurement,setting,value
B1,glycan array binding signal (z-score),[1],-0.721
same,glycan array binding signal (z-score),[2],-0.027
same,glycan array binding signal (z-score),[3],0.313
same,glycan array binding signal (z-score),[4],0.282
same,glycan array binding signal (z-score),[5],0.176
same,glycan array binding signal (z-score),[6],-0.445
same,glycan array binding signal (z-score),[7],1.95
same,glycan array binding signal (z-score),[8],-0.496
same,glycan array binding signal (z-score),[9],-0.139
same,glycan array binding signal (z-score),[10],-0.449
same,glycan array binding signal (z-score),[11],0.205
same,glycan array binding signal (z-score),[12],1.23
same,glycan array binding signal (z-score),[13],-0.494
same,glycan array binding signal (z-score),[14],-1.09
same,glycan array binding signal (z-score),[15],-0.312
same,glycan array binding signal (z-score),[16],0.624
same,glycan array binding signal (z-score),[17],-0.683
same,glycan array binding signal (z-score),[18],-1.76
same,glycan array binding signal (z-score),[19],-0.18
same,glycan array binding signal (z-score),[20],0.238
same,glycan array binding signal (z-score),GlcNAc(b1-3)Fuc,0.13
same,glycan array binding signal (z-score),GlcNAc(b1-3)Gal,-0.971
same,glycan array binding signal (z-score),[21],-0.512
same,glycan array binding signal (z-score),GlcNAc(b1-3)Gal(b1-4)Glc,0.314
same,glycan array binding signal (z-score),[22],-0.328
same,glycan array binding signal (z-score),[23],-0.308
same,glycan array binding signal (z-score),[24],0.752
same,glycan array binding signal (z-score),[25],1.26
same,glycan array binding signal (z-score),[26],-0.273
same,glycan array binding signal (z-score),[27],0.7
same,glycan array binding signal (z-score),[28],-0.74
same,glycan array binding signal (z-score),[29],0.296
same,glycan array binding signal (z-score),[30],-0.256
same,glycan array binding signal (z-score),[31],0.198
same,glycan array binding signal (z-score),[32],0.903
same,glycan array binding signal (z-score),[33],0.174
same,glycan array binding signal (z-score),[34],1.41
same,glycan array binding signal (z-score),[35],1.15

# A second format for some results above:
binder	measurement	setting	value
B1	glycan array binding signal (z-score)	[30]	-0.256
same	glycan array binding signal (z-score)	[31]	0.198
